From PMC4450086 come the findings set out here.

The chains behind the UniProt entries cited, without tags or fusion partners. Residues count along the entry.
UniProt P08581, residues 25-1390: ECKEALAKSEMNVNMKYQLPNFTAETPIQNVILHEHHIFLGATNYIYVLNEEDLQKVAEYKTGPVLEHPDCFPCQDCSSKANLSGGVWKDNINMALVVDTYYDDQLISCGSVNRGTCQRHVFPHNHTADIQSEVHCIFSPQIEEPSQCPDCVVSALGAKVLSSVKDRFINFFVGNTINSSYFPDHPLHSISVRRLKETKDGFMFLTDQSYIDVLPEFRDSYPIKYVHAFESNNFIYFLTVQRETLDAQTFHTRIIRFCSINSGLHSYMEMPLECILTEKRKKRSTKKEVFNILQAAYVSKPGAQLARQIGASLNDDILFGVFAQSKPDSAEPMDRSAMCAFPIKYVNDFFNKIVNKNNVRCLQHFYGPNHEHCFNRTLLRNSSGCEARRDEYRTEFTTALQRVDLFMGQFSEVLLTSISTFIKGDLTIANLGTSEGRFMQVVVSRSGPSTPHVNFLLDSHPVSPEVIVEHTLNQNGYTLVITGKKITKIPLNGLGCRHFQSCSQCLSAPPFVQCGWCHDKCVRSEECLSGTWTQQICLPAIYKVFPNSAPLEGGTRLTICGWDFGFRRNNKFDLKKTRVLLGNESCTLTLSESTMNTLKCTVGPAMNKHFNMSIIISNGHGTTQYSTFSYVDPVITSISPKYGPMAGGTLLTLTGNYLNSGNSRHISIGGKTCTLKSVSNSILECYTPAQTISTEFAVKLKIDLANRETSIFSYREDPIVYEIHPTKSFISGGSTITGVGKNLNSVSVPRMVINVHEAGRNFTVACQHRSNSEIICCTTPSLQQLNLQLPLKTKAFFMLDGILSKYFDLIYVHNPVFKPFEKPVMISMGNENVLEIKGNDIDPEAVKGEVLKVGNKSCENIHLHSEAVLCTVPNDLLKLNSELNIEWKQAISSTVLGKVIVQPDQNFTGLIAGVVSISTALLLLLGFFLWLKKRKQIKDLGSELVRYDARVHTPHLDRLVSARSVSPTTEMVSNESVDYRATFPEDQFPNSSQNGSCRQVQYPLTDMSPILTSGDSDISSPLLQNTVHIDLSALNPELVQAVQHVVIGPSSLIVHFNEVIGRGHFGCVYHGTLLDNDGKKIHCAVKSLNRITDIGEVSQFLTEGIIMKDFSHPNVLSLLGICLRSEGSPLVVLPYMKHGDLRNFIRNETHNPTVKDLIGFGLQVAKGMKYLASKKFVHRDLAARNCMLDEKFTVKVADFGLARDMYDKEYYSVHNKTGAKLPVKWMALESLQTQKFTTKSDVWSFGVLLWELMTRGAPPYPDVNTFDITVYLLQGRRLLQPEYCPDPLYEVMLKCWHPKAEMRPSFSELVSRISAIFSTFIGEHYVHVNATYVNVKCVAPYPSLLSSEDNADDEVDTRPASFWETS
UniProt P16056, residues 25-1379: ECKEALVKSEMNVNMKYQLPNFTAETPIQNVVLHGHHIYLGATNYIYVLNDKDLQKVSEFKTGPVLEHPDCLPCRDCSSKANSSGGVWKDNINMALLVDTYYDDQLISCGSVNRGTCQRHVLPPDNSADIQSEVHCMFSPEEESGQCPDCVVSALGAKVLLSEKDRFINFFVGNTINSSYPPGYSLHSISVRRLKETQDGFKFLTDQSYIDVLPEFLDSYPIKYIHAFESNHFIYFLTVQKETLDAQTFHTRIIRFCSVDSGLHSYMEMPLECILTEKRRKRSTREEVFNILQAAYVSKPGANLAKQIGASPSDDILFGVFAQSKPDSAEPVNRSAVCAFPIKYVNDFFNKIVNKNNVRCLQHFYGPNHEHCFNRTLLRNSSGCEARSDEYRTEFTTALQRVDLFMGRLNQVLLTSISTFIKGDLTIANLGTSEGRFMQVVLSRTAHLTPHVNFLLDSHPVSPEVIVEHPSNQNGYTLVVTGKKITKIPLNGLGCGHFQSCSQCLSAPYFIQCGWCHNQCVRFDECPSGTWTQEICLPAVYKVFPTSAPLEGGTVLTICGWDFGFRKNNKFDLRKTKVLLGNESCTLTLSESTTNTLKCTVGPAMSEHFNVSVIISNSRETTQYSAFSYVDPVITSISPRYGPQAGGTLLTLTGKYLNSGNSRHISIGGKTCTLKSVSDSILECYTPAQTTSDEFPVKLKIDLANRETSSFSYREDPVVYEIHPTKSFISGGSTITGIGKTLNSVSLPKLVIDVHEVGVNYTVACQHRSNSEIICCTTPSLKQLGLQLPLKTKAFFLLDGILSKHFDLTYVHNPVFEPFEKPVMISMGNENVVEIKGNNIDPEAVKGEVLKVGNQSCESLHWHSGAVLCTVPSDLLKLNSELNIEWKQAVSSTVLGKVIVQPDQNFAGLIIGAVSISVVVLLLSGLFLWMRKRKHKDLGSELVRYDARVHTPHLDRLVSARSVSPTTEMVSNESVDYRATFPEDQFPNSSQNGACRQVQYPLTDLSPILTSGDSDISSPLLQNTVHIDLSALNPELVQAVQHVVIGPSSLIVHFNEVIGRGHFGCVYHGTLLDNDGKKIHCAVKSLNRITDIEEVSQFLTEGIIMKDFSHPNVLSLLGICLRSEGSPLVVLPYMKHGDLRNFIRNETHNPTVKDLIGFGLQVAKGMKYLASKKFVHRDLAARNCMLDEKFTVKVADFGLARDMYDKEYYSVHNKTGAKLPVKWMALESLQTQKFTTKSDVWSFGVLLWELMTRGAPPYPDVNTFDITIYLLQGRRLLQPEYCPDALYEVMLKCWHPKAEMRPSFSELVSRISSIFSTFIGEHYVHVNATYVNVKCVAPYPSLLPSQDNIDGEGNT
UniProt P16070, residues 21-742: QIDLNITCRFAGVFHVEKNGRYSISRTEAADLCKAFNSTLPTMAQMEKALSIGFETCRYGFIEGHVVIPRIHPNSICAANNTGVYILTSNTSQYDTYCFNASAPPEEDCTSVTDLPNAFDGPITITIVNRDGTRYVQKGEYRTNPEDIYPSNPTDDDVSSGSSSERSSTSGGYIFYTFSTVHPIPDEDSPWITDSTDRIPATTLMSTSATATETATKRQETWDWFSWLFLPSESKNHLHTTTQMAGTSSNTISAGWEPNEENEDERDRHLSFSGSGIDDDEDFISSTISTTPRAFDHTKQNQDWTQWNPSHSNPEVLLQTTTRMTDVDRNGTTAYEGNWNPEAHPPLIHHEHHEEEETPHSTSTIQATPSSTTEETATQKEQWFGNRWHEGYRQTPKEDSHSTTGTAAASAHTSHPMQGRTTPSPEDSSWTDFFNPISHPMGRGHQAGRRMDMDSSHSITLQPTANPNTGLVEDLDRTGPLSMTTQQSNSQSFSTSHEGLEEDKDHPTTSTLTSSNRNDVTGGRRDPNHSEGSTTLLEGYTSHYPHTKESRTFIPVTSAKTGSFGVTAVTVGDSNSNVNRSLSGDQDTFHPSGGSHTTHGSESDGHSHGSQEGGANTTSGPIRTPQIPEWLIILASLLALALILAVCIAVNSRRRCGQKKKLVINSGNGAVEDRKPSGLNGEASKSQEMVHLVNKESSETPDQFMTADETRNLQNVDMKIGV
UniProt B5Z6S0: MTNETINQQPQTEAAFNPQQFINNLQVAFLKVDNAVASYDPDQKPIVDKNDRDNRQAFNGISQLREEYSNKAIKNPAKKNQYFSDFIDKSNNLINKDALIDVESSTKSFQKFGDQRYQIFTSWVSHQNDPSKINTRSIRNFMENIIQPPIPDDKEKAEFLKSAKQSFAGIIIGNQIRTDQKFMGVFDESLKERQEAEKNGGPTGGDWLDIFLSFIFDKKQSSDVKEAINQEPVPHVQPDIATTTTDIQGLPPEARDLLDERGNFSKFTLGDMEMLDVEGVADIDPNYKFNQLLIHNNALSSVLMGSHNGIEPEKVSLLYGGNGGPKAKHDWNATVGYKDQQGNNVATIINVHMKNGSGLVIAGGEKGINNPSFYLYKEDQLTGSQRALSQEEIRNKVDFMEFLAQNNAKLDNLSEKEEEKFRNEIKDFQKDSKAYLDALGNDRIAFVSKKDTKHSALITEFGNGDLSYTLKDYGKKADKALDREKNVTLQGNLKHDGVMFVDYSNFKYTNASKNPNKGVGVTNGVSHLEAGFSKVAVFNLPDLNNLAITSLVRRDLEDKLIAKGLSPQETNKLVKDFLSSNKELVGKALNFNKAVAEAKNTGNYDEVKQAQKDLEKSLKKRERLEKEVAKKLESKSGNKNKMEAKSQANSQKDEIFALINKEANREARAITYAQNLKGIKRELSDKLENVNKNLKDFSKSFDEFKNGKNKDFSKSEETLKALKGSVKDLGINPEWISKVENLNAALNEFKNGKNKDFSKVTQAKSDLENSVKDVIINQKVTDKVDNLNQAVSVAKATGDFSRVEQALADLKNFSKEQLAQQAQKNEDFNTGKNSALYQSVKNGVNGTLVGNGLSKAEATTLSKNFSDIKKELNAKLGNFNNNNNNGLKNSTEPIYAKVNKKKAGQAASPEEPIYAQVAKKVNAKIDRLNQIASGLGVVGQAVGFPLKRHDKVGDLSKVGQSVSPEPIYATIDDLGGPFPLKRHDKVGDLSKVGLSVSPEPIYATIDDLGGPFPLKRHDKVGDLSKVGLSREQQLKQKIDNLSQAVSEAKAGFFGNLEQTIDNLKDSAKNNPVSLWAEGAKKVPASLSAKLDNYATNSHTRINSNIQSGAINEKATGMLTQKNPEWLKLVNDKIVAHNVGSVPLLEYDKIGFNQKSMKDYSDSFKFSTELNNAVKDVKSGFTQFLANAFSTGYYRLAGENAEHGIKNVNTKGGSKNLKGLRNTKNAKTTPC

Assay [1] deals with tyrosine kinase c-Met receptor (human) (human (endogenous in hFGOs)) (UniProt P08581). The assay is described as follows: co-IP; lysates (M-PER) of hFGOs infected with H. pylori G27 for 24 h; anti-c-Met antibody 1:50 overnight at 4 C, Protein A/G Plus agarose; Western blot. A general note: In western blotting, separated proteins are transferred to a membrane and probed.
For assay [2], the target named is tyrosine kinase c-Met receptor (mouse) (mouse (endogenous in mFGOs)) (UniProt P16056). The assay is described as follows: co-IP; lysates (M-PER) of mFGOs infected with H. pylori G27 for 24 h; anti-c-Met antibody 1:50 overnight at 4 C, Protein A/G Plus agarose; Western blot for TyrP, c-Met, CagA, CD44 and HGF.
The target in assay [3] is tyrosine kinase c-Met receptor (human) (human (endogenous in hFGOs)) (UniProt P08581). In words: co-IP; lysates of hFGOs pre-treated with CD44v6 neutralizing antibody (100 ng/ml, 1 hour) before H. pylori G27 infection; anti-c-Met immunoprecipitation, Western blot.
The target of assay [4] is tyrosine kinase c-Met receptor (mouse) (mouse (endogenous in mFGOs)) (UniProt P16056). The assay is described as follows: co-IP; lysates of mFGOs derived from CD44-deficient mice, H. pylori G27 infected for 24 h; anti-c-Met immunoprecipitation, Western blot for TyrP, c-Met, CagA, CD44 and HGF.

These are yes or no findings as the source states them, for the method shown. Binding seen in cells or lysates may run through a third protein. Some results given as binding are weak or reduced against the parent protein; the word gives no strength.

Turning to “CD44 (human) (from UniProt P16070 21-742) (receptor)”, in assay [1], the binding entry is listed as “binds”.
Consider “CagA of Helicobacter pylori strain G27 (from UniProt B5Z6S0 1-1230)”, for which the binding entry in assay [2], in assay [1], in assay [3] and in assay [4] was “binds” each time.
